Experimental data published in US20070218466A1.
Results are given in words; binding and its absence hold for the method and conditions named. Some entries that bind do so weakly or less than the wild type.

Chains of the proteins cited; added tags and fusions are not shown.
UniProt P09310: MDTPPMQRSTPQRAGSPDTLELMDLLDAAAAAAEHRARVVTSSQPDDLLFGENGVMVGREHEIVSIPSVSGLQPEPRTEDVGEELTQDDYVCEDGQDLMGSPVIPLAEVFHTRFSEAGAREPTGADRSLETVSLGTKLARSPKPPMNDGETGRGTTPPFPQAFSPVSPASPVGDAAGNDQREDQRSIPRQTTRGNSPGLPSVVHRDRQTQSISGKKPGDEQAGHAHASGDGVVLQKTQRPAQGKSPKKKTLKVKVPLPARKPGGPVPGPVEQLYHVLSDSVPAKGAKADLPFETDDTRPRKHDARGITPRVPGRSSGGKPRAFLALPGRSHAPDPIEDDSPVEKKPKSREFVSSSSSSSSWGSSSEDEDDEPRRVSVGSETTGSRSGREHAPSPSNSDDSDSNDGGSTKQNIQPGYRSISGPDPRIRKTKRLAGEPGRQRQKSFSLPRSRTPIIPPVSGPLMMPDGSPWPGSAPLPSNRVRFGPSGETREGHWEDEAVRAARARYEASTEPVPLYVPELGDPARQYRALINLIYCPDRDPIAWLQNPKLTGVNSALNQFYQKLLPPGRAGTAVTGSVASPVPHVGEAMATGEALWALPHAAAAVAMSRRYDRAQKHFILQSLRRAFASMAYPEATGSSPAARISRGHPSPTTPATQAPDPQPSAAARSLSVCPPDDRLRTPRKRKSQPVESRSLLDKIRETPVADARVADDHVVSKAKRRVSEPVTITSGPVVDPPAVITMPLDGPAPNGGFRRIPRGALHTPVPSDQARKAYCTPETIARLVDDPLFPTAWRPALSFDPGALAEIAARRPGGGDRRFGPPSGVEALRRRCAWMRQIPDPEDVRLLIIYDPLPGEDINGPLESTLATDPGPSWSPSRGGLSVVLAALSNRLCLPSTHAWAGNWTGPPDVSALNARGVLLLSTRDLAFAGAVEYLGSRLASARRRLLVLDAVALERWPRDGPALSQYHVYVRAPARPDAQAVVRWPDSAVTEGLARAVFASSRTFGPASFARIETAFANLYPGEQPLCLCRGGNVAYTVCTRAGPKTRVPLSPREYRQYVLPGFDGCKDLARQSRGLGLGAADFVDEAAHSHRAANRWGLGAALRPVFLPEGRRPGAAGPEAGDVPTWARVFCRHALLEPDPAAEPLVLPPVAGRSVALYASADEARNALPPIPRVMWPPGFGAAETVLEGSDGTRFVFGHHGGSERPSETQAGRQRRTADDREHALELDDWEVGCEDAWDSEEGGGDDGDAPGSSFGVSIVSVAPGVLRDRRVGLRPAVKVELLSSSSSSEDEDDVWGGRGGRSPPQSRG

Molecular target: T1, full-length MxA protein (human) (UniProt P20591)
T1 sequence (looked up): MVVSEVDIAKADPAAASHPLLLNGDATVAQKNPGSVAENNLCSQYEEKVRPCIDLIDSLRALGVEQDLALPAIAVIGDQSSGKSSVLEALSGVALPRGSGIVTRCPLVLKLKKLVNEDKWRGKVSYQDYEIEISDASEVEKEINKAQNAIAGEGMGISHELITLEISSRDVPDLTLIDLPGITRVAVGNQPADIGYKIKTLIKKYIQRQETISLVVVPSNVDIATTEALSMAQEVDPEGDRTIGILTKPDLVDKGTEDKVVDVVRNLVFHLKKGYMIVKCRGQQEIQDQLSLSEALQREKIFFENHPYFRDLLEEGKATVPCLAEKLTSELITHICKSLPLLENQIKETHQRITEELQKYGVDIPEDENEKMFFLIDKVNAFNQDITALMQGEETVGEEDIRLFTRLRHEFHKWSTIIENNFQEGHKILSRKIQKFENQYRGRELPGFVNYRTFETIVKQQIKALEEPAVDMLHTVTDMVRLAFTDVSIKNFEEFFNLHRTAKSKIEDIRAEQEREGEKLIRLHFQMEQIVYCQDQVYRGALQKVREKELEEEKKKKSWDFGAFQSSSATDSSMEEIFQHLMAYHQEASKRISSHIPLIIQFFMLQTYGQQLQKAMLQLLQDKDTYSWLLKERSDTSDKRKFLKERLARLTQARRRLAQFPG
Assay: confocal microscopy co-localisation in 293T cells cotransfected with MxA and IE62

In the case of “VZV encoded protein IE62 (from UniProt P09310 1-1310)”, the binding is reported as “binds”.
